Measurements reported in PubChem BioAssay AID1259254 (NCATS, 2017)

- Purpose: 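Genome-wide screen for genes that prevent DNA re-replication in cancer cells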 (primary screen)
- Cell system: human HCT116 colorectal cancer cells
- Knock-down reagent: single siRNA against human genes
- Duration: 3 days
- Read-out: 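Nuclei stained with Hoechst and imaged; cell-cycle phase assigned by DNA content; G2 share scaled per plate, non-targeting siRNA 0%, GMNN siRNA 100%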
- Direction: G2 robust z-score: higher = more G2 cells, more excess DNA replication
- Hit rule: 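An siRNA counts as active if its G2 robust z-score lies at least 5 MADs above the screen median; here such calls match roughly 38% of GMNN control or more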
The deposit covers about 59,000 reagents; this is a random part of them. Of all reagents, about 1,550 (2.6%) were called active. 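G2 share is only a proxy for re-replication; each gene was hit by three separate siRNAs, and active genes were retested.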 Reagents against one gene are numbered here. Not all columns of the deposit are shown. Not stated in the record: the amount of reagent.

G2 robust z-score, by target and reagent
TACR2 (GeneID 6865): #1 -0.733 inactive; #2 4.91 inactive; #3 2.12 inactive
NOS1AP (GeneID 9722): #1 -1.19 inactive; #2 -0.673 inactive; #3 -0.821 inactive
IRAK2 (GeneID 3656): #1 1.22 inactive; #2 1.59 inactive; #3 -0.631 inactive
C1QA (GeneID 712): #1 -0.242 inactive; #2 -0.12 inactive; #3 3.7 inactive
TBX20 (GeneID 57057): #1 3.91 inactive; #2 -0.728 inactive; #3 5.7 active
TOB2 (GeneID 10766): #1 2.53 inactive; #2 -0.893 inactive; #3 -0.463 inactive
RPS24P4 (GeneID 729257): #1 -0.0524 inactive; #2 -0.67 inactive; #3 0.191 inactive
ARV1 (GeneID 64801): #1 0.388 inactive; #2 0.0479 inactive; #3 5.65 active
STX2 (GeneID 2054): #1 1.03 inactive; #2 -1.11 inactive; #3 -0.202 inactive
MYRF (GeneID 745): #1 -1.01 inactive; #2 -0.396 inactive; #3 0.532 inactive
H2AP (GeneID 25763): #1 0.662 inactive; #2 -0.422 inactive; #3 -0.257 inactive
ERG28 (GeneID 11161): #1 -0.859 inactive; #2 -0.109 inactive; #3 3.8 inactive
CPEB2 (GeneID 132864): #1 -0.24 inactive; #2 2.28 inactive; #3 -0.579 inactive
SNRPB (GeneID 6628): #1 9.43 active; #2 1.4 inactive; #3 0.82 inactive
RAB6B (GeneID 51560): #1 -0.375 inactive; #2 0.402 inactive; #3 -0.767 inactive
MOCS2 (GeneID 4338): #1 -1.12 inactive; #2 -0.424 inactive; #3 -0.778 inactive

Copied from the entries so far (10 entries):
G2 robust z-score, by target and reagent
TOB2 (GeneID 10766): #3 -0.463 inactive
RPS24P4 (GeneID 729257): #1 -0.0524 inactive; #2 -0.67 inactive; #3 0.191 inactive
ARV1 (GeneID 64801): #1 0.388 inactive; #2 0.0479 inactive; #3 5.65 active
STX2 (GeneID 2054): #1 1.03 inactive; #2 -1.11 inactive; #3 -0.202 inactive

Further reagents follow.
G2 robust z-score, by target and reagent
POU5F2 (GeneID 134187): #1 -0.635 inactive; #2 -0.411 inactive; #3 -0.353 inactive
MED11 (GeneID 400569): #1 0.29 inactive; #2 0.799 inactive; #3 2.67 inactive
GSPT2 (GeneID 23708): #1 -1.16 inactive; #2 0.196 inactive; #3 2.19 inactive
USB1 (GeneID 79650): #1 1.31 inactive; #2 0.134 inactive; #3 -0.44 inactive
REN (GeneID 5972): #1 4.35 inactive; #2 1.89 inactive; #3 -0.772 inactive
SFPQ (GeneID 6421): #1 2.44 inactive; #2 1 inactive; #3 -0.371 inactive
UQCC3 (GeneID 790955): #1 0.593 inactive; #2 -0.596 inactive; #3 -0.446 inactive
JAK1 (GeneID 3716): #1 1.89 inactive; #2 -0.267 inactive; #3 -0.855 inactive
EXOG (GeneID 9941): #1 -0.378 inactive; #2 -0.459 inactive; #3 1.89 inactive
PLEKHB1 (GeneID 58473): #1 -0.25 inactive; #2 -0.706 inactive; #3 1.1 inactive
UBE2G2 (GeneID 7327): #1 -0.869 inactive; #2 1.14 inactive; #3 -0.604 inactive
ZRANB2 (GeneID 9406): #1 -0.46 inactive; #2 -0.198 inactive; #3 -0.0604 inactive
ADGRL2 (GeneID 23266): #1 0.0842 inactive; #2 -1.15 inactive; #3 -0.533 inactive
